# Source: PubChem BioAssay (NCATS)
# Sequences of proteins named here, by UniProt entry; tags and fusion partners are left off. A change or cut given only in a name is not applied to a line headed by its entry.
# UniProt P11473: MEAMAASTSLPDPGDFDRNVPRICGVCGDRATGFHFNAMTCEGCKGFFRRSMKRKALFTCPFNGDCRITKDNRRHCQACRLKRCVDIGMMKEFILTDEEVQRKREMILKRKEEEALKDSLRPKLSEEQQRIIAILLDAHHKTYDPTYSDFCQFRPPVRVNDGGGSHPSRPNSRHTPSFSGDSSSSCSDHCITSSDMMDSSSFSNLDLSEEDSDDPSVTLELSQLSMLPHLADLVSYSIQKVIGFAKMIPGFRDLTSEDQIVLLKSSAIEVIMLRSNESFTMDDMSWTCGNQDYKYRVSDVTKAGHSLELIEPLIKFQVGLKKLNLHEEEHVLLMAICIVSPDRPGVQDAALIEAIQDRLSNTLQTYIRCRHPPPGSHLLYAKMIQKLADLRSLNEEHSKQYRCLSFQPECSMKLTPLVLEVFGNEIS
# The inconclusive results got no clear call from the source; some entries with a clear call stand among them for comparison. A potency beside an inconclusive call is a rough fit, not a confirmed value. Activity calls are given as the source filed them. Calls follow the shape of the dose curve; as a rule, active = well fitted curve in the direction sought with a large enough effect; inconclusive = small, poorly fitted or top-dose-only effect, or another doubt; inactive = no such curve, though single readings can be large; an effect the other way counts as inactive or inconclusive.
# Columns and labels:
# [1] = target: Vitamin D3 receptor (Homo sapiens) (UniProt P11473); assay: qHTS for Inhibitors of the vitamin D receptor (VDR): Hit Validation in Primary Screen (AID 602199); settings: VDR-coactivator inhibition assay, qHTS confirmation
# Method in brief: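 Fluorescence polarization assay of VDR binding to Alexa 647-labelled SRC2-3 coactivator peptide: 800nM VDR with 5uM LG19078 agonist, compounds, 2 h at room temperature, read Ex 620 nm/Em 688 nm.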
# [2] = target: Vitamin D3 receptor (Homo sapiens) (UniProt P11473); assay: qHTS for Inhibitors of the vitamin D receptor (VDR): Hit Validation using a Fluorescein Assay (AID 602200); settings: VDR-coactivator binding, fluorescein fluorescence polarization; series mostly up to 57.1 µM
# Method in brief: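 Fluorescence polarization (Ex 495 nm/Em 520 nm) read after 2 h at room temperature, reporting disruption of binding between 1.5 uM VDR-LBD, liganded by 5 uM LG19078, and 5 nM fluorescein-labelled SRC2-3 coactivator peptide (final concentrations).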
# [3] = qHTS for Inhibitors of the vitamin D receptor (VDR): Hit Validation using a Texas Red Assay (AID 602201); settings: VDR coregulator binding, Texas Red fluorescence polarization, agonist-bound VDR ligand-binding domain; series mostly up to 57.1 µM
# Method in brief: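 Fluorescence polarization (Ex 595/Em 615 nm) of Texas Red (7 nM) with 1.5 uM VDR-LBD and LG19078 (final concentrations). Compounds were incubated for 2 hours at room temperature.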
# [4] = qHTS for Inhibitors of the vitamin D receptor (VDR): Hit Validation using a Cytotoxicity Assay (AID 602204); settings: cytotoxicity counter-screen, cell viability; series mostly up to 48.3 µM; also: nearly all actives have a fitted effect of over 75% in size;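 as to potency: cells co-treated with VDR agonist LG190178 at 300 nM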
# Method in brief: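 Cytotoxicity is flagged by loss of ATP-dependent luminescence in cells treated 18 h with compound. Seeding density was 20,000 cells per well with 4 h pre-incubation; detection took 30 min.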
# [5] = target: Vitamin D3 receptor (Homo sapiens) (UniProt P11473); assay: qHTS for Inhibitors of the vitamin D receptor (VDR): Hit Validation using a Beta-Lactamase Assay (AID 602202); settings: VDR beta-lactamase reporter cells, FRET ratio, cells co-treated with VDR agonist LG190178; series mostly up to 46.1 µM
# Method in brief: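 Stably transfected HEK293 cells express a VDR–GAL4 DNA-binding-domain fusion driving a UAS beta-lactamase reporter, stimulated by agonist LG190178. Compounds were added 4 h after plating and incubated 18 h. A FRET beta-lactam substrate was then added for 2 h and cleaved substrate emission read at 447 nm.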
# Potency is read from the fitted curve at half-maximal effect.
Structure (SMILES),Potency [1],Potency [2],Potency [3],Potency [4],Potency [5]
Fc1ccc(N=C2NN=C(c3cc(F)ccc3F)CS2)cc1,"inconclusive: 16.8 µM [inhibitor, partial curve]","inconclusive: 25.1 µM [inhibitor, partial curve, poor fit]","inconclusive: 14.1 µM [inhibitor, partial curve]","inconclusive: 1.84 µM [rising, partial curve, poor fit]",–
CN(C)S(=O)(=O)c1ccc(C(=O)/C=C/c2cccnc2)cc1,"inconclusive: 9.47 µM [inhibitor, partial curve]","inconclusive: 7.94 µM [inhibitor, full curve]","inconclusive: 3.16 µM [inhibitor, full curve]","inconclusive: 3.98 µM [rising, partial curve, poor fit]",–
O=[N+]([O-])c1ccc(C2=Nn3c(Cn4nnc5ccccc54)nnc3SC2)cc1,"inconclusive: 17.8 µM [inhibitor, partial curve]",–,active: 25.1 µM,"inconclusive: 15 µM [rising, partial curve, poor fit]",–
CC1(C)Cc2ccccc2C2=NNC(=O)C2=N1,"inconclusive: 8.44 µM [inhibitor, partial curve]","inconclusive: 28.2 µM [inhibitor, partial curve]","inconclusive: 11.2 µM [inhibitor, partial curve]","inconclusive: 23.1 µM [cytotoxic, partial curve, poor fit]",–
Cc1cc(C)c(C#N)c(=N)o1,"inconclusive: 6.7 µM [inhibitor, full curve]","inconclusive: 3.98 µM [inhibitor, single point]","inconclusive: 3.98 µM [inhibitor, partial curve, poor fit]",inactive,–
COc1ccccc1/C=C1\CCCC2=C1Nc1nnnn1C2c1ccccc1OC (centres undefined),"inconclusive: 17.8 µM [inhibitor, single point]","inconclusive: 25.1 µM [inhibitor, partial curve]","inconclusive: 35.5 µM [inhibitor, single point]",inactive,"inconclusive: 23.1 µM [inhibitor, partial curve]"
CCOc1ccccc1C1N=C(c2ccc(OC)cc2)CC(c2ccccc2O)N1 (centres undefined),"inconclusive: 22.4 µM [inhibitor, partial curve]","inconclusive: 2.51 µM [inhibitor, full curve, poor fit]","inconclusive: 39.8 µM [inhibitor, single point]",–,"inconclusive: 10.3 µM [inhibitor, single point]"
CC(=O)N1CCN(C(=S)c2ccc(-c3ccc(Cl)cc3)o2)CC1,–,"inconclusive: 12.6 µM [inhibitor, partial curve]",–,–,–
CC(C)CC(=O)/C(=C\c1ccc(Cl)cc1Cl)n1cncn1,–,"inconclusive: 1.41 µM [inhibitor, full curve, poor fit]","inconclusive: 0.891 µM [inhibitor, full curve, poor fit]",–,–
COC(=O)C1=C(C)N(Cc2ccco2)C(=O)/C1=C\c1ccc([N+](=O)[O-])cc1,"inconclusive: 10.6 µM [inhibitor, partial curve]",inactive,"inconclusive: 2.24 µM [inhibitor, full curve, poor fit]","inconclusive: 14.6 µM [cytotoxic, partial curve]",–
O=C(/C=C1\C(=O)Nc2ccccc21)/C=C1\C(=O)Nc2ccccc21,active: 11.9 µM,"inconclusive: 3.55 µM [inhibitor, partial curve]","inconclusive: 3.55 µM [inhibitor, partial curve, poor fit]","inconclusive: 16.4 µM [cytotoxic, single point]","inconclusive: 29.1 µM [inhibitor, single point]"
Cc1sc(NC(=O)COc2ccccc2)c(C#N)c1C,–,"inconclusive: 14.1 µM [inhibitor, partial curve]",–,–,–
O=C1Nc2ccc(Br)cc2/C1=C/C(=O)c1ccc2c(c1)OCO2,"inconclusive: 9.47 µM [inhibitor, partial curve]","inconclusive: 7.94 µM [inhibitor, full curve]","inconclusive: 3.55 µM [inhibitor, full curve, poor fit]","inconclusive: 31.6 µM [cytotoxic, single point]","inconclusive: 29.1 µM [inhibitor, single point]"
CC(=O)Oc1cccc(/C=c2\sc3nc(-c4ccco4)nn3c2=O)c1,–,"inconclusive: 3.16 µM [inhibitor, full curve]","inconclusive: 6.31 µM [inhibitor, partial curve]",–,–
CN1C(=O)/C(=C/c2cccc([N+](=O)[O-])c2)C(=O)N1c1ccccc1,–,"inconclusive: 3.16 µM [inhibitor, full curve, poor fit]","inconclusive: 3.55 µM [inhibitor, partial curve]",–,–
CCCCS(=O)(=O)c1oc(-c2cccs2)nc1S(=O)(=O)c1ccccc1,–,active: 3.16 µM,"inconclusive: 39.8 µM [inhibitor, single point]",–,–
N#Cc1c(Nc2ccc(Cl)cc2)s[nH]c1=O,–,"inconclusive: 3.16 µM [inhibitor, single point]",inactive,–,–
O=C1N=c2ccccc2=C1c1c(O)n(-c2cccc(F)c2)[nH]c1=O,–,"inconclusive: 5.62 µM [inhibitor, single point]","inconclusive: 4.47 µM [inhibitor, single point]",–,–
CCOc1cc(/C=C2\N=C(C)OC2=O)cc(Br)c1OCC(=O)OC,–,"inconclusive: 7.08 µM [inhibitor, single point]","inconclusive: 3.55 µM [inhibitor, single point]",–,–

Structure (SMILES),Potency [1],Potency [2],Potency [3],Potency [4],Potency [5]
CCOC(=O)c1sc(NC(=O)CSc2nnc(Cc3ccccc3)o2)c(C#N)c1C,–,"inconclusive: 0.708 µM [inhibitor, full curve, poor fit]","inconclusive: 0.794 µM [inhibitor, full curve, poor fit]",–,–
O=C(/C=C/c1ccc(Cl)c([N+](=O)[O-])c1)c1cccnc1,–,active: 2.51 µM,active: 4.47 µM,–,–
COc1ccc(/C=C2\N=C(C)OC2=O)cc1[N+](=O)[O-],–,"inconclusive: 3.55 µM [inhibitor, single point]","inconclusive: 2.24 µM [inhibitor, partial curve]",–,–
CCOC(=O)COc1ccccc1/C=C\[N+](=O)[O-],–,"inconclusive: 1.78 µM [inhibitor, partial curve, poor fit]","inconclusive: 0.708 µM [inhibitor, full curve, poor fit]",–,–
[O-]/[N+](=C/c1ccc(F)cc1)c1ccc(Cl)cc1,–,"inconclusive: 10 µM [inhibitor, partial curve]",inactive,–,–
CC(C)c1ccc(/C=c2\sc3nc(-c4ccncc4)nn3c2=O)cc1,–,"inconclusive: 1.12 µM [inhibitor, full curve]","inconclusive: 1.12 µM [inhibitor, partial curve, poor fit]",–,–
CCc1c(C)sc(NC(=O)c2ccoc2C)c1C(N)=O,–,"inconclusive: 3.55 µM [inhibitor, partial curve, poor fit]","inconclusive: 3.55 µM [inhibitor, single point]",–,–
O=C(c1cccs1)c1no[n+]([O-])c1C(=O)c1cccs1,–,active: 3.55 µM,active: 3.55 µM,–,–
CC(C)CN1C(=O)/C(=C(/C#N)C(=O)NC2CCCCC2)c2ccccc21,–,active: 2.82 µM,active: 3.55 µM,–,–
CCCc1nnc(NC(=O)c2nc(S(=O)(=O)Cc3ccc(C)cc3)ncc2Cl)s1,–,active: 7.94 µM,"inconclusive: 2.82 µM [inhibitor, full curve]",–,–
Oc1ccc(C(=S)N2CCN(c3cccc(Cl)c3)CC2)cc1,–,"inconclusive: 3.55 µM [inhibitor, partial curve, poor fit]",inactive,–,–
O=C(Nc1cc(S(=O)(=O)N2CCOCC2)ccc1N1CCCCC1)c1ccc(Cl)cc1,–,"inconclusive: 3.16 µM [inhibitor, partial curve, poor fit]","inconclusive: 3.16 µM [inhibitor, single point]",–,–
Nc1cccc2c1C(=O)N(C(=O)/C=C/c1ccc(F)cc1)C2=O,–,active: 10 µM,"inconclusive: 5.01 µM [inhibitor, full curve]",–,–
Cc1cccc(NC(c2ccc(O)cc2)c2ccc3ccc(C)nc3c2O)n1 (centres undefined),–,"inconclusive: 11.2 µM [inhibitor, partial curve]","inconclusive: 2.82 µM [inhibitor, full curve]",–,–
O=c1[nH]c(/C=C\c2cccc(Cl)c2)nc(O)c1[N+](=O)[O-],–,"inconclusive: 3.16 µM [inhibitor, full curve]",inactive,–,–
Nc1cc(S(=O)(=O)N2CCOCC2)ccc1N1CCCCC1,–,"inconclusive: 3.16 µM [inhibitor, partial curve, poor fit]","inconclusive: 3.16 µM [inhibitor, full curve, poor fit]",–,–
CCOc1ccc(C(=O)CC(C(=O)O)N2CCCCC2)cc1 (centres undefined),–,"inconclusive: 5.01 µM [inhibitor, full curve]",inactive,–,–
Cc1onc(-c2ccccc2)c1C(=O)Nc1nnc(COc2ccc(Cl)cc2)s1,–,"inconclusive: 1.58 µM [inhibitor, partial curve, poor fit]","inconclusive: 0.708 µM [inhibitor, full curve]",–,–

# In the list so far, these have bromine.
Structure (SMILES),Potency [1],Potency [2],Potency [3],Potency [4],Potency [5]
O=C1Nc2ccc(Br)cc2/C1=C/C(=O)c1ccc2c(c1)OCO2,"inconclusive: 9.47 µM [inhibitor, partial curve]","inconclusive: 7.94 µM [inhibitor, full curve]","inconclusive: 3.55 µM [inhibitor, full curve, poor fit]","inconclusive: 31.6 µM [cytotoxic, single point]","inconclusive: 29.1 µM [inhibitor, single point]"
CCOc1cc(/C=C2\N=C(C)OC2=O)cc(Br)c1OCC(=O)OC,–,"inconclusive: 7.08 µM [inhibitor, single point]","inconclusive: 3.55 µM [inhibitor, single point]",–,–
